Results as given in patent publication US8802674B2, “Aminopyrimidine derivatives as LRRK2 modulators” (Genentech, Inc., priority 2011, dated 2014).

By UniProt entry, the sequences of proteins in these tests, tags left out. Residues count along the entry.
UniProt Q5S007, 970-2527 G2019S limits assumed: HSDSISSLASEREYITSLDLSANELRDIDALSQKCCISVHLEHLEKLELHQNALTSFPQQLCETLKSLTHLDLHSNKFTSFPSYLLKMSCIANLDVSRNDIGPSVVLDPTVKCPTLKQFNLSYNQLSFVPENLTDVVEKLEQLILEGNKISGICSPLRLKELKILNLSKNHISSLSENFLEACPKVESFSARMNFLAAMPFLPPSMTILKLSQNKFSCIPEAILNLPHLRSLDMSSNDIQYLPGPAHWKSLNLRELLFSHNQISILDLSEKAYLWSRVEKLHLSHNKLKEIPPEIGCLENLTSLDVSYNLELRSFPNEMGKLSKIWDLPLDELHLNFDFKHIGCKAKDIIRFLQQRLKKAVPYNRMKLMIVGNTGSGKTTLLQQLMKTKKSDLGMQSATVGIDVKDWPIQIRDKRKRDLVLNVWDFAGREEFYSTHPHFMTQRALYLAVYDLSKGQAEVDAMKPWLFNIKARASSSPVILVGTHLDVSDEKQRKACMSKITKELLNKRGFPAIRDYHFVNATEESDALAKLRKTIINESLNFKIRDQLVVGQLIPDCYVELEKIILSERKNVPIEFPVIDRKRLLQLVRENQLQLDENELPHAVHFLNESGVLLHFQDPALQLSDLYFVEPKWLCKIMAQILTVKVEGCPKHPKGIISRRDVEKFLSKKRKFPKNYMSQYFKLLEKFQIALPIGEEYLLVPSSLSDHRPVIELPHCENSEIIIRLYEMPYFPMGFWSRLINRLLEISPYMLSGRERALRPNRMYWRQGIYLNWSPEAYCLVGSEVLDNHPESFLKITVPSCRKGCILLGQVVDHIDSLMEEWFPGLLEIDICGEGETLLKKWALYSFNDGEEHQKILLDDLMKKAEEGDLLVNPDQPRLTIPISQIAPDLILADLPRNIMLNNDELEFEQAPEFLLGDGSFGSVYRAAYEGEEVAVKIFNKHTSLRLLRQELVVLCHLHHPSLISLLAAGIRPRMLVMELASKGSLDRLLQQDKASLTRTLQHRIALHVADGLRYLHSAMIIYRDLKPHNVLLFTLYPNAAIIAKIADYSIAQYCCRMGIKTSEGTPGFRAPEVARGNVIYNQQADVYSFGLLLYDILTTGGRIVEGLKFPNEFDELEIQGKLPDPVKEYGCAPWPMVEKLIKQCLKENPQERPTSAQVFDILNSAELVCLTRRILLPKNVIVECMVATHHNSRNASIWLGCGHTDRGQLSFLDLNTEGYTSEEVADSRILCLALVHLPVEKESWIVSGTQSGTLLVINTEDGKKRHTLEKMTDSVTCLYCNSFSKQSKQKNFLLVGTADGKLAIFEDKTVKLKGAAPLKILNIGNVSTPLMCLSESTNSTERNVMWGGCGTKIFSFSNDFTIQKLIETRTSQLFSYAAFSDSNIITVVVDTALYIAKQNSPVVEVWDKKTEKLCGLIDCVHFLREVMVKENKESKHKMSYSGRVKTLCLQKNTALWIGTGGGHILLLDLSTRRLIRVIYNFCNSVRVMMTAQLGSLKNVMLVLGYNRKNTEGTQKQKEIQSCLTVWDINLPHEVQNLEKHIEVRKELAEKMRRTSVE

Target: LRRK2 (Homo sapiens (Human), UniProt Q5S007, G2019S)
Assay: In Vitro LRRK2 LabChip Assay
Conditions: read-out: LRRK2 Ki (KI); Table 6

SMILES | Ki [nM]
CNc1nc(Nc2ccc(C(=O)N3CC4CC3CO4)cc2OC)ncc1C(F)(F)F (centres unmarked) | 3.3
CNc1nc(Nc2ccc(C(=O)NC3CC(F)(F)C3)cc2OC)ncc1C(F)(F)F | 1.5

The structures given here were assigned with low confidence; some may be wrong.
